# Measurements from the supplement of paper PMC11348887.
# Counter-ions that a name gives are not always drawn. ± gives the standard deviation of the averaged measurements. The list shows a part of the results. Most values lie at the level of the controls, where differences are scatter. Where a SMILES comes first, the peptide text is derived from it. [ ]: non-standard residue; d: D form. d2Nal = N[C@H](Cc1ccc2ccccc2c1)C(=O)O
# Columns and labels:
# Conditions in all cases: 5 µM; treatment: days 7-14 after plating, readout day 21
# [1] = system: hPSC-derived cortical neurons (WA09); test: nucleus area z-score vs screen plate; higher = larger nuclei (more mature)
# [2] = system: hPSC-derived cortical neurons (WA09); test: total neurite length per nucleus (MAP2) z-score; higher = more neurite growth
# [3] = system: hPSC-derived cortical neurons (WA09); test: nucleus roundness z-score vs screen plate; higher = rounder nuclei (more mature)
# [4] = system: hPSC-derived cortical neurons (WA09); test: KCl-induced FOS+/EGR-1+ double-positive nuclei fraction z-score (KCl minus unstimulated); higher = stronger activity-induced IEG response
Structure (SMILES),nucleus area z-score [1],total neurite length per nucleus (z-score) [2],nucleus roundness z-score [3],KCl-induced FOS+/EGR-1+ double-positive nuclei fraction z-score [4]
NCCC[C@H](N)C(=O)O [L-Ornithine],1.21,0.92,1.5,0.943
Cn1cc(-c2ccc3nnc(Sc4ccc5ncccc5c4)n3n2)cn1,-0.694,0.15,0.447,-0.228
CCC(=O)NS(=O)(=O)c1ccc(-c2c(-c3ccccc3)noc2C)cc1 [Parecoxib],-0.441,-0.0383,-0.481,0.0864
COCCOc1cnc2ccn([C@H](C)c3nnc4c(F)cc(-c5cnn(C)c5)cn34)c(=O)c2c1,0.734,0.925,0.335,2.81
CN1CCN(c2ccc(Nc3ncc4cc(C#N)c(=O)n(C5CCCC5)c4n3)cc2)CC1,-4.14,-2.19,-4.33,-0.586
Cn1c([N+](=O)[O-])cnc1COC(N)=O [Ronidazole],-0.891,0.409,-0.409,-4.04
CC(=O)SCC(Cc1ccccc1)C(=O)NCC(=O)OCc1ccccc1 (stereo unspecified) [Racecadotril],-0.644,1.26,1.15,1.73
NCC(=O)Nc1ccc(-n2nc(C(F)(F)F)cc2-c2ccc3c(ccc4ccccc43)c2)cc1,-1.54,-0.907,-1.26,-0.0149
C=CC(=O)Nc1cccc(Nc2nc(Nc3ccc(N4CCN(C(C)=O)CC4)cc3OC)ncc2C(F)(F)F)c1,-0.128,-0.356,-0.68,-0.545
Cc1ccc(O)c([C@H](CCN(C(C)C)C(C)C)c2ccccc2)c1 [Tolterodine tartrate],-0.00377,-0.382,0.125,-0.253
C#C[C@]1(O)CC[C@H]2[C@@H]3CCc4cc(O)ccc4[C@H]3CC[C@@]21C [Ethinyl Estradiol],-0.395,0.512,1.1,1.7
CC(C)NCC(O)c1ccc(NS(C)(=O)=O)cc1 (stereo unspecified) [Sotalol],0.517,1.07,-0.228,0.213
CNC(=O)[C@@H](c1ccccc1)N1CCc2cc(OC)c(OC)cc2[C@@H]1CCc1ccc(C(F)(F)F)cc1 [Almorexant HCl],-2.12,-1.37,-0.23,0.0193
CC1(C)C=C(CN2C/C(=C\c3ccc(F)cc3)C(=O)/C(=C/c3ccc(F)cc3)C2)C(C)(C)N1O,-0.0492,-0.364,0.208,-0.531
Cc1ccc(C(=O)Nc2cccc(C(F)(F)F)c2)cc1Nc1nc(-c2cccnc2)nc2c1cnn2C,-1.71,-0.0459,0.834,-0.251
CC(C)(C)Cn1c(N)nc2ccc(-c3[nH]c(C(C)(C)C)nc3-c3ccc(F)cc3)nc21,0.264,0.447,-0.313,0.536
C[C@H](NC(=O)[C@@H](Cc1ccc2ccccc2c1)NC(=O)[C@@H](C)N)C(=O)N[C@@H](Cc1c[nH]c2ccccc12)C(=O)N[C@H](Cc1ccccc1)C(=O)N[C@@H](CCCCN)C(N)=O (H-[dA][d2Nal]AW[dF]K-NH2),-0.687,-0.233,0.832,-0.839
Cc1[nH]c(/C=C2\C(=O)Nc3ccc(S(=O)(=O)Cc4c(Cl)cccc4Cl)cc32)c(C)c1C(=O)N1CCC[C@@H]1CN1CCCC1,-8.27,-3.96,-4.47,-0.85
Cn1c(=O)cc(N2CCC[C@@H](N)C2)n(Cc2ccccc2C#N)c1=O [Alogliptin],-0.774,1.02,2.38,0.797
C[C@H]1[C@H](OC(=O)CCC(=O)O)O[C@@H]2O[C@@]3(C)CC[C@H]4[C@H](C)CC[C@@H]1[C@@]24OO3 [Artesunate],-0.523,-0.533,-1.74,-0.947
OC[C@@H](O)[C@@H](O)[C@H](O)[C@@H](O)CO [Sorbitol],0.582,-1.28,-1.41,1.86
COC(c1ccccc1)(c1ccccc1)[C@H](Oc1nc(C)cc(C)n1)C(=O)O [Ambrisentan],0.719,-0.376,0.139,0.23
O=C(O)Cc1cc(I)c(Oc2ccc(O)c(I)c2)c(I)c1 [Tiratricol],0.462 ± 0.8,0.31 ± 0.44,0.52 ± 0.62,-0.534 ± 0.83

# Reprinted at random: 2 entries already listed.
Structure (SMILES),nucleus area z-score [1],total neurite length per nucleus (z-score) [2],nucleus roundness z-score [3],KCl-induced FOS+/EGR-1+ double-positive nuclei fraction z-score [4]
Cc1[nH]c(/C=C2\C(=O)Nc3ccc(S(=O)(=O)Cc4c(Cl)cccc4Cl)cc32)c(C)c1C(=O)N1CCC[C@@H]1CN1CCCC1,-8.27,-3.96,-4.47,-0.85
Cn1c(=O)cc(N2CCC[C@@H](N)C2)n(Cc2ccccc2C#N)c1=O [Alogliptin],-0.774,1.02,2.38,0.797
